Measurements: CN115028729A
Results are given in words; binding and its absence hold for the method and conditions named. Some results given as binding are weak or reduced against the parent protein; the word gives no strength.

What was measured:
[1] = target: T1, 重组尿酸氧化酶 (recombinant urate oxidase, made by the method of Chinese patent ZL02819387.3) (产朊假丝酵母 (Candida utilis)) (UniProt P78609); experiment: western blot; recombinant urate oxidase on 10% SDS-PAGE, transferred to PVDF, HRP goat anti-mouse secondary, ECL
T1 sequence (looked up): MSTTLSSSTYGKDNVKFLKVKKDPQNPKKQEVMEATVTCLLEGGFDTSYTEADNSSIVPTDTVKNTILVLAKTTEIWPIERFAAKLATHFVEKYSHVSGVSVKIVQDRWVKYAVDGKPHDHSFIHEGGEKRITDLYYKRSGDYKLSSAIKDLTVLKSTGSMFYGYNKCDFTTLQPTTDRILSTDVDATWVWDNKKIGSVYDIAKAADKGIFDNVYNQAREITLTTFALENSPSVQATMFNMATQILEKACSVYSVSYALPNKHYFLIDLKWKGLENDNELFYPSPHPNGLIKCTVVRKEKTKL

[2] = target: T1, 重组尿酸氧化酶 (recombinant urate oxidase, made by the method of Chinese patent ZL02819387.3) (产朊假丝酵母 (Candida utilis)); experiment: MSD bridging electrochemiluminescence ADA assay; biotin-urate oxidase on a streptavidin plate, ruthenium-labelled urate oxidase for detection

B1: 抗尿酸氧化酶单克隆抗体 (monoclonal antibody secreted by hybridoma cell line 29D7F2A8, CGMCC No.21493) (antibody, mouse IgG2a, kappa, V domains shown)
VH: QVQLQQPGAELVKPGTSVKLSCKTSGYTFTNYWIHWVKQGPGQGLEWIGEIDPSDSYTIYSQKFKGKATLTVDKFSSTAYMHLSSLTSEDSAVYYCARGDYALSWGQGTLVTVSA
VL: DIVMTQSHRFMSTSVGDRVSLTCKASQDVSTAVAWYQQKPGQSPKLLIYSASYRYTGVPDRFTGSGSGTDFTFTVSSVQAEDLAVYYCQQHYGAPYTFGGGTKLEIKR
binding [1]: binds
binding [2]: binds
